Results as given in the supplement of paper PMC10735217.
Counter-ions that a name gives are not always drawn. This is one part of the list. Single values are uncertain here, since repeats match poorly.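 The human kidney-derived cells carry a stably integrated construct of eight TEAD-binding elements driving luciferase, read by luminescence in a drug-repurposing library screen. A compound counts as a hit when its signal is more than five robust Z scores above the plate mean.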

Test system: HEK293A TEAD-LUC reporter
Test: TEAD-luciferase reporter activity (YAP activation), robust Z score vs plate; higher = stronger YAP/TEAD activation
Settings: 24 h

| Structure (SMILES) | TEAD-luciferase reporter activity (compound concentration: 200 nM) | TEAD-luciferase reporter activity (compound concentration: 2 uM) | TEAD-luciferase reporter activity (compound concentration: 10 uM) |
| --- | --- | --- | --- |
| CCOC(=O)[C@H](CCc1ccccc1)N[C@@H](C)C(=O)N(CC(=O)O)C1Cc2ccccc2C1 [delapril] | inactive: -0.446 | inactive: -0.153 | inactive: -0.344 |
| O=C([O-])C1=CS[C@@H]2/C(=C\c3cn4c(n3)COCC4)C(=O)N12 [BLI 489 Hydrate] | inactive: -0.00514 | inactive: 0.459 | inactive: 3.22 |
| C[S+](C)CCC(N)C(=O)O (stereo not drawn) [Cabagin] | inactive: 0.134 | inactive: -0.632 | inactive: -0.611 |
| COC(=O)OCOc1c2n(ccc1=O)N([C@@H]1c3ccccc3SCc3c1ccc(F)c3F)[C@@H]1COCCN1C2=O [Baloxavir marboxil] | inactive: -0.82 | – | inactive: 0.749 |
| O=C(COCC(=O)Nc1ccc(Cl)cc1C(=O)O)Nc1cccc(-c2ccoc2)c1 | inactive: -1.79 | inactive: 1.01 | inactive: 0.149 |
| CC#CCC(C)[C@H](O)/C=C/[C@@H]1[C@H]2C/C(=C/CCCC(=O)O)C[C@H]2C[C@H]1O (stereo partly drawn) [iloprost] | – | inactive: -0.278 | – |
| CC#CCC(C)[C@H](O)/C=C/[C@@H]1[C@H]2C/C(=C/CCCC(=O)O)C[C@H]2C[C@H]1O (stereo partly drawn) [Iloprost] | inactive: 2.26 | – | inactive: 3.76 |
| CCCC[C@H](C)C[C@H](O)/C=C/[C@H]1[C@H](O)CC(=O)[C@@H]1CCCC/C=C/C(=O)O [limaprost alfadex] | inactive: -1.47 | inactive: 0.342 | inactive: 1.82 |
| CCN1CCC(c2cc(F)cc(S(C)(=O)=O)c2)CC1 | inactive: -0.229 | inactive: -1.61 | inactive: 0.887 |
| CCCCCCCCCC(=O)N[C@H]1[C@H](Oc2c3cc4cc2Oc2ccc(cc2Cl)[C@@H](O[C@@H]2O[C@H](CO)[C@@H](O)[C@H](O)[C@H]2NC(C)=O)[C@@H]2NC(=O)[C@H](NC(=O)[C@@H]4NC(=O)[C@H]4NC(=O)[C@@H](Cc5ccc(c(Cl)c5)O3)NC(=O)[C@@H]([NH3+])c3ccc(O)c(c3)Oc3cc(O)cc4c3)c3ccc(O)c(c3)-c3c(O[C@H]4O[C@H](CO)[C@@H](O)[C@H](O)[C@@H]4O)cc(O)cc3C(C(=O)O)NC2=O)O[C@H](CO)[C@@H](O)[C@@H]1O (stereo partly drawn) [Teicoplanin] | inactive: -0.679 | inactive: 1.47 | inactive: -0.214 |
| CCOC(=O)CCNC(=O)N[C@H]1CCN(c2ccc(C(=N)NOC(=O)OCC)cc2)C1=O | inactive: -0.831 | inactive: -0.0804 | inactive: 1.26 |
| OC(CO/N=C(\Cl)c1cccnc1)CN1CCCCC1 (stereo not drawn) | inactive: -1.38 | inactive: 2.56 | active: 8.19 |
| C[C@H](N)C(=O)N[C@@H](CCC(=O)O)C(=O)N[C@@H](CC(=O)O)C(=O)NCC(=O)O [Epithalon] | inactive: -0.935 | inactive: -1.12 | inactive: -1.37 |
| N=C(N)NCc1cccc(I)c1 [Iobenguane sulfate] | – | inactive: 0.0616 | – |
| N=C(N)NCc1cccc(I)c1 [m-Iodobenzylguanidine hemisulfate] | active: 6.49 | – | inactive: 0.789 |
| CCCCCCCCNC(=O)/C(C#N)=C\c1c(C)n(CCCN(C)C)c2ccccc12 | – | inactive: 0.481 | – |
| CC(C)(CC1Cc2ccccc2C1)NC[C@@H](O)COc1cc(CCC(=O)O)ccc1C#N | – | inactive: -0.347 | – |
| C=CC(=O)Nc1cc(Nc2nccc(-c3cn(C)c4ccccc34)n2)c(OC)cc1N(C)CCN(C)C | inactive: 1.63 | inactive: 0.621 | inactive: 3.18 |
| COc1cc2c(Oc3ccc(NC(=O)C4(C(=O)Nc5ccc(F)cc5)CC4)cc3F)ccnc2cc1OCCCN1CCOCC1 [foretinib] | inactive: -0.914 | inactive: -2.3 | inactive: -2.03 |
| Nc1ccn([C@@H]2O[C@H](CO[P@@]3(=O)OCC[C@@H](c4ccncc4)O3)[C@@H](O)[C@@H]2O)c(=O)n1 | inactive: -1.03 | inactive: -1.02 | inactive: -1.01 |
| CCCCC(=O)c1cnc2c(OCCO)cccc2c1Nc1ccccc1C | inactive: 1.5 | inactive: -0.488 | inactive: 0.685 |
| CCOC(=O)C1=C(C)NC(C)=C(C(=O)OC)C1c1ccccc1OC(F)F (stereo not drawn) | inactive: 0.16 | inactive: -1.49 | inactive: 0.104 |
| C=CC(C)(C)c1cc(/C=C/C(=O)c2ccc(O)cc2)c(OC)cc1O [Licochalcone A] | – | inactive: -1.39 | – |
| C=CC(C)(C)c1cc(/C=C/C(=O)c2ccc(O)cc2)c(OC)cc1O [Licochalcone-A, Synthetic] | inactive: -0.621 | – | inactive: 0.867 |
| COc1cc(/C=C/C(=O)N2CCN(CC3CCn4c(nc5ccccc54)S3)CC2)cc(OC)c1OC (stereo not drawn) | inactive: -1.05 | inactive: -1 | inactive: 1.93 |
| COc1cc2c(Nc3ccc(Sc4nccn4C)c(Cl)c3)c(C#N)cnc2cc1N1CCC(N2CCCC2)CC1 [balamapimod] | inactive: -0.928 | inactive: 2 | inactive: 1.77 |
| O=C(COCC(=O)Nc1c(I)cc(I)c(C(=O)O)c1I)Nc1c(I)cc(I)c(C(=O)O)c1I | inactive: -0.45 | inactive: -0.825 | inactive: 0.471 |
| COc1cccc2[nH]c3c4c(c5c(c3c12)C(=O)NC5=O)CCC4 | inactive: -1.39 | inactive: -0.574 | inactive: 1.21 |

| Structure (SMILES) | TEAD-luciferase reporter activity (compound concentration: 200 nM) | TEAD-luciferase reporter activity (compound concentration: 2 uM) | TEAD-luciferase reporter activity (compound concentration: 10 uM) |
| --- | --- | --- | --- |
| CO/N=C(/C(=O)NC1C(=O)N2C(C(=O)O)=C(COC(C)=O)CSC12)c1csc(N)n1 (stereo not drawn) [cefotaxime salt] | inactive: 2.95 | inactive: 0.534 | inactive: 0.716 |
| Oc1cc(O)c2cc(O)c(-c3ccc(O)c(O)c3)[o+]c2c1 [Cyanidin chloride] | inactive: 1.74 | inactive: -0.279 | inactive: -0.652 |
| C[C@@H](C(=O)N1CCOCC1)N1CC[C@H](NS(=O)(=O)/C=C/c2ccc(Cl)s2)C1=O | active: 5.74 | inactive: -0.993 | inactive: -1.41 |
| CCCCn1c(=O)n(CCC)c(=O)c2c(NC)n(C(=O)OC)nc21 | inactive: -1.85 | inactive: 0.192 | inactive: 3.24 |
| O=C(O)/C(=C\c1c(C(=O)O)[nH]c2cc(Cl)cc(Cl)c12)c1ccccc1 | inactive: 0.759 | inactive: -1.96 | inactive: -1 |
| ClI(Cl)Cl [Iodine trichloride] | inactive: 0.245 | inactive: 0.906 | inactive: 0.00217 |
| Cc1c(Br)ccc2c1CN1C(=N2)NC(=O)C1C (stereo not drawn) | active: 5.84 | inactive: 2.35 | inactive: -1.24 |
| CN1CCc2c([N+](=O)[O-])cc3[nH]c(=O)c(=O)[nH]c3c2C1 | inactive: -1.45 | inactive: -0.277 | inactive: 1.59 |
| O=C(O)CCCCc1ccc(I)cc1 | inactive: -0.56 | inactive: 0.194 | active: 8.94 |
| CC(=O)N1Cc2ccccc2CC2(CCCCN2CC2CCNC2)C1 (stereo not drawn) | inactive: -2.11 | – | inactive: 4.15 |
| O=C(N[C@@H](Cc1ccc(F)cc1)C(=O)N1CCC(O)CC1)c1cc2cc(Cl)ncc2[nH]1 | inactive: 0.24 | inactive: 0.00597 | inactive: 1.09 |
| O=C1NCc2ccccc2CC12CCCN2Cc1cccc(Br)c1 (stereo not drawn) | inactive: -0.774 | – | inactive: 1.65 |
| CC(=O)N1CCC2(CC1)CN(C(=O)CCC(=O)O)Cc1ccccc1O2 | inactive: -0.552 | – | inactive: 3.01 |
| O=C(Nc1cccc(Cl)c1)Nc1ncc(CCNc2ncnc3ccsc23)s1 | inactive: 1.58 | inactive: -0.62 | inactive: -0.273 |
| O=C(O)CCC(=O)N1Cc2ccccc2CC2(CCCCN2CCc2ccccc2)C1 (stereo not drawn) | active: 5.9 | – | inactive: 3.44 |
| CCc1c2c(nc3ccc(OC(=O)N4CCC(N5CCCCC5)CC4)cc13)-c1cc3c(c(=O)n1C2)COC(=O)[C@]3(O)CC [Irinotecan hydrochloride] | inactive: -1.45 | – | inactive: 0.854 |
| CCc1c2c(nc3ccc(OC(=O)N4CCC(N5CCCCC5)CC4)cc13)-c1cc3c(c(=O)n1C2)COC(=O)[C@]3(O)CC [etirinotecan pegol] | – | inactive: -0.994 | – |
| c1cnc2cc3c(cc2n1)[C@@H]1CNC[C@H]3C1 | inactive: 4.97 | – | inactive: 1.75 |
| c1cnc2cc3c(cc2n1)[C@@H]1CNC[C@H]3C1 [Varenicline tartrate] | – | inactive: -0.871 | – |
| Cc1cc2c(N3CCCC3)nc(N3CCCC3)nc2n1C | inactive: 4.64 | inactive: 1.62 | inactive: -0.979 |
| N#Cc1ccc(C2CCCc3cncn32)cc1 (stereo not drawn) [fadrozole] | inactive: 0.664 | inactive: 1.66 | inactive: -0.24 |
| CCOC(=O)[C@H](CCc1ccccc1)N[C@@H](C)C(=O)N1Cc2cc(OC)c(OC)cc2C[C@H]1C(=O)O | inactive: -1.14 | inactive: -1.25 | inactive: 0.665 |
| CCCCCC(/C=C/n1ccnc1)OC(=O)c1cccnc1 (stereo not drawn) [nicogrelate] | inactive: -1.35 | inactive: 0.976 | inactive: -0.686 |
| O=C1NCN(c2ccccc2)C12CCN(CCCC(c1ccc(F)cc1)c1ccc(F)cc1)CC2 [Fluspirilene] | inactive: -0.753 | inactive: -0.336 | inactive: -0.184 |
| N#Cc1ccccc1/C=C/C=C/C(=O)N1CCN(c2ccccn2)CC1 | inactive: 0.749 | inactive: 0.308 | inactive: 2.49 |
| CC/C=C(\C(=O)N[C@@H]1C(=O)N2C(C(=O)OCOC(=O)C(C)(C)C)=C(COC(N)=O)CS[C@H]12)c1csc(N)n1 [cefcapene pivoxil] | – | inactive: -0.211 | – |
| CC/C=C(\C(=O)N[C@@H]1C(=O)N2C(C(=O)OCOC(=O)C(C)(C)C)=C(COC(N)=O)CS[C@H]12)c1csc(N)n1 [Cefcapene Pivoxil Hydrochloride Monohydrate] | inactive: -1.13 | – | inactive: -3.5 |

Reprinted at random: four entries already listed

| Structure (SMILES) | TEAD-luciferase reporter activity (compound concentration: 200 nM) | TEAD-luciferase reporter activity (compound concentration: 2 uM) | TEAD-luciferase reporter activity (compound concentration: 10 uM) |
| --- | --- | --- | --- |
| Cc1c(Br)ccc2c1CN1C(=N2)NC(=O)C1C (stereo not drawn) | active: 5.84 | inactive: 2.35 | inactive: -1.24 |
| Cc1cc2c(N3CCCC3)nc(N3CCCC3)nc2n1C | inactive: 4.64 | inactive: 1.62 | inactive: -0.979 |
| O=C(N[C@@H](Cc1ccc(F)cc1)C(=O)N1CCC(O)CC1)c1cc2cc(Cl)ncc2[nH]1 | inactive: 0.24 | inactive: 0.00597 | inactive: 1.09 |
| CN1CCc2c([N+](=O)[O-])cc3[nH]c(=O)c(=O)[nH]c3c2C1 | inactive: -1.45 | inactive: -0.277 | inactive: 1.59 |
